{
  "source": "patent US5719296A",
  "about": "(Merck & Co., Inc., priority 1996, dated 1998)",
  "experiment": "general procedure: solution-phase peptide synthesis; EDC/HOBT",
  "conditions": "whole synthesis, RP-HPLC",
  "data": [
    {"substance": "EtOCO-Phe-(R)-γ-Lactam-Nva-Leu-NH2", "values": [
      {"measurement": "final HPLC purity", "result": 80, "unit": "% purity"},
      {"measurement": "final purity (method not given)", "result": 98, "unit": "%"}
    ]}
  ]
}
